No constants are given. Whether binding was seen depends on the method and setting. In cells and extracts the contact can be indirect. Some binding calls cover weakened binding; strength is not graded here. For some of these results: Where a sequence is shown, tags or fusion partners need not be part of it.

Chains of the proteins cited; added tags and fusions are not shown. Lines headed by an entry give the natural chain unless they say otherwise; changes in a name come on top. A line that says so, or that is headed by a name, gives the form on record, which may keep a tag or linker. Residues count along the entry.
UniProt P25942: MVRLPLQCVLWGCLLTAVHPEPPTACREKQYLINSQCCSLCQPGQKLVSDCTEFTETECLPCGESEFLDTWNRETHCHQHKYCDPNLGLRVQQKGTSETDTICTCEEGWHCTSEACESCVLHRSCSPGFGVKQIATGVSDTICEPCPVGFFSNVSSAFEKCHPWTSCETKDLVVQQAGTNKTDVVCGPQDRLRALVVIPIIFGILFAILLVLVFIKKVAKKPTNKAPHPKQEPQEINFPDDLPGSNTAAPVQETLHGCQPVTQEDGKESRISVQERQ
native CD40 (full-length): residues 21-277 of P25942
GSTCD40T (GST fused to the native CD40 cytoplasmic domain): residues 216-277 of P25942

From patent publication US7544481 (REGENTS OF THE UNIVERSITY OF MICHIGAN, dated 2009) come the findings set out here.

For assay [1], the target named is native CD40 (full-length) (human) (UniProt P25942). Put plainly: co-immunoprecipitation from transfected 293T and BJAB cells (figure legend).
For assay [2] the target is unchanged. Briefly: co-immunoprecipitation with endogenous CD40 from transfected BJAB B cells, then re-immunoprecipitation with anti-HA.
Assay [3] shares this target. Briefly: co-immunoprecipitation with anti-CD40 antibody from cotransfected 293T cells, confirmed by re-immunoprecipitation with anti-HA.
Assay [4] has as its target GSTCD40T (GST fused to the native CD40 cytoplasmic domain) (human) (UniProt P25942). Put plainly: GST pull-down of in vitro translated 35S-labeled CD40bp, autoradiography.

B1: HA epitope-tagged CD40bp (protein)
chain: YPYDVPDYAMESSKKMDSPGALQTNPPLKLHTDRSAGTPVFVPEQGGYKEKFVKTVEDKYKCEKCHLVLCSPKQTECGHRFCESCMAALLSSSSPKCTACQESIVKDKVFKDNCCKREILALQIYCRNESRGCAEQLMLGHLVHLKNDCHFEELPCVRPDCKEKVLRKDLRDHVEKACKYREATCSHCKSQVPMIALQKHEDTDCPCVVVSCPHKCSVQTLLRSELSAHLSECVNAPSTCSFKRYGCVFQGTNQQIKAHEASSAVQHVNLLKEWSNSLEKKVSLLQNESVEKNKSIQSLHNQICSFEIEIERQKEMLRNNESKILHLQRVIDSQAEKLKELDKEIRPFRQNWEEADSMKSSVESLQNRVTELESVDKSAGQVARNTGLLESQLSRHDQMLSVHDIRLADMDLGFQVLETASYNGVLIWKIRDYKRRKQEAVMGKTLSLYSQPFYTGYFGYKMCARVYLNGDGMGKGTHLSLFFVIMRGEYDALLPWPFKQKVTLMLMDQGSSRRHLGDAFKPDPNSSSFKKPTGEMNIASGCPVFVAQTVLENGTYIKDDTIFIKVIVDTSDLPDP
B1: the binding entry in assay [1], in assay [2] and in assay [3] was “binds” in each case.

B2: in vitro translated [35S]methionine-labeled CD40bp (protein)
chain: MESSKKMDSPGALQTNPPLKLHTDRSAGTPVFVPEQGGYKEKFVKTVEDKYKCEKCHLVLCSPKQTECGHRFCESCMAALLSSSSPKCTACQESIVKDKVFKDNCCKREILALQIYCRNESRGCAEQLMLGHLVHLKNDCHFEELPCVRPDCKEKVLRKDLRDHVEKACKYREATCSHCKSQVPMIALQKHEDTDCPCVVVSCPHKCSVQTLLRSELSAHLSECVNAPSTCSFKRYGCVFQGTNQQIKAHEASSAVQHVNLLKEWSNSLEKKVSLLQNESVEKNKSIQSLHNQICSFEIEIERQKEMLRNNESKILHLQRVIDSQAEKLKELDKEIRPFRQNWEEADSMKSSVESLQNRVTELESVDKSAGQVARNTGLLESQLSRHDQMLSVHDIRLADMDLGFQVLETASYNGVLIWKIRDYKRRKQEAVMGKTLSLYSQPFYTGYFGYKMCARVYLNGDGMGKGTHLSLFFVIMRGEYDALLPWPFKQKVTLMLMDQGSSRRHLGDAFKPDPNSSSFKKPTGEMNIASGCPVFVAQTVLENGTYIKDDTIFIKVIVDTSDLPDP
modifications: [35S]methionine label
For B2, in assay [4], the binding entry is given as “binds”.
